Data taken from patent US7230089.
These are yes or no findings as the source states them, for the method shown. Some binding calls cover weakened binding; strength is not graded here. Tags and fused reporters may be left off the sequences shown.

By UniProt entry, the sequences of proteins in these tests, tags left out. Where a name states a change or a piece, a line headed by the entry shows the natural chain unless it says otherwise.
UniProt P04386: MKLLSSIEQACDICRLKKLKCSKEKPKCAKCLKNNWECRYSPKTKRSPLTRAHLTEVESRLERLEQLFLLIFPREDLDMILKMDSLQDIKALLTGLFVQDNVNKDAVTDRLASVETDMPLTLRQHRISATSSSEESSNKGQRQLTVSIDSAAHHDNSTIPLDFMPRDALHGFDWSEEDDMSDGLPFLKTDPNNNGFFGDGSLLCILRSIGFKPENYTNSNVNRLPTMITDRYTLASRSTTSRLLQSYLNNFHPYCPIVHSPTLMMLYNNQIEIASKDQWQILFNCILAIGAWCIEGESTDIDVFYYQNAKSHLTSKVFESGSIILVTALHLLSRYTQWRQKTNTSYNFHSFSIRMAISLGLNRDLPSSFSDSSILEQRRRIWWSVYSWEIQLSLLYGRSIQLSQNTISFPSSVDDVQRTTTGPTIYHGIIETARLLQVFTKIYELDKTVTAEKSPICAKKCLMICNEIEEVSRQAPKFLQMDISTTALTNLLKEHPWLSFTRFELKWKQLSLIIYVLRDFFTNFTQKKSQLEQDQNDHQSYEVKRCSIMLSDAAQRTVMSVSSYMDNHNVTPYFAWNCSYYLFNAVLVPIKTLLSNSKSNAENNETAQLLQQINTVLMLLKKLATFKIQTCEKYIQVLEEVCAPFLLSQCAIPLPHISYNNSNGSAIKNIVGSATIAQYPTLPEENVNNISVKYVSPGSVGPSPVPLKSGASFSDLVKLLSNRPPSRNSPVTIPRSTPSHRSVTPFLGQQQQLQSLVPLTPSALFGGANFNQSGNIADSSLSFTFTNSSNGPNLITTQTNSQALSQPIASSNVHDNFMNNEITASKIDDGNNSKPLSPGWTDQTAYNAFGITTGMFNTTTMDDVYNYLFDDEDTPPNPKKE
UniProt P42751: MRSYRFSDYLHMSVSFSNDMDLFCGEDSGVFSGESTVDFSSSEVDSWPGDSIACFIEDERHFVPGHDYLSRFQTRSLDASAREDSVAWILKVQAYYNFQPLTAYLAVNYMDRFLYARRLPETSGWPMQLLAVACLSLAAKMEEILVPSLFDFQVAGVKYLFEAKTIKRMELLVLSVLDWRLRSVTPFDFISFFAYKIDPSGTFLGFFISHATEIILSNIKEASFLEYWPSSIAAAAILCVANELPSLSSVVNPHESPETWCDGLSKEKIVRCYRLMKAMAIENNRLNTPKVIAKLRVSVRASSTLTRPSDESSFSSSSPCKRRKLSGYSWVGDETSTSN

Assays:
[1] = target: T1, GAL4-CycD1At fusion protein (Arabidopsis thaliana D-type cyclin D1, amino acids 1 to 334, fused to the GAL4 DNA binding domain; bait plasmid pGBT9CycD1At) (Arabidopsis thaliana) (UniProt P04386+P42751); test: yeast two-hybrid screen (growth on His- / 3-aminotriazole medium and beta-galactosidase activity), cyclin D1 as GAL4 DNA binding domain bait
[2] = target: T1, GAL4-CycD1At fusion protein (Arabidopsis thaliana D-type cyclin D1, amino acids 1 to 334, fused to the GAL4 DNA binding domain; bait plasmid pGBT9CycD1At) (Arabidopsis thaliana); test: yeast two-hybrid screen, cyclin D1 as bait

Row | Binder | binding [1] | binding [2]
1 | BRO2 (clone from the Arabidopsis thaliana cDNA / GAL4 activation domain fusion library, pACT BRO2) (protein, not shown: large carriers) MDLELLQDLSKFNFPTPIKIRSKTSKTKKDEGDDDEDDLRCSTPTSQEHKIPAVVDSPPPPPRKPRPPPSAPSATAALMIRSCKRKLLVSTCEIIMNREEIDRFFSSVYNETSTTAKRRRSYPYCSRR | binds | binds
2 | BRO3 (clone from the Arabidopsis thaliana cDNA / GAL4 activation domain fusion library, pACT BRO3) (protein, not shown: large carriers) MEEEVDLVESRIILSPCVQATNRGGIVARNSAGASETSVVIVRRRDSPPVEEQCQIEEEDSSVSCCSTSEEKSKRRIEFVDLEENNGDDRETETSWIYDDLNKSEESMNMDSSSVAVEDVESRRRLRKSLHETVKEAELEDFFQVAEKDLRNKLLECSMKYNFDFEKDEPLGGGRYEWVKLNP | binds | binds
3 | BRO4 (clone from the Arabidopsis thaliana cDNA / GAL4 activation domain fusion library, pACT BRO4) (protein, not shown: large carriers) MSERKRELAEEASSTSFSPLKKTKLNDSSDSSPDSHDVIVFAVSSSSVASSAALASDECSVTIGGEESDQSSSISSGCFTSESKEIAKNSSSFGVDLEDHQIETETETSTFITSNFRKETSPVSEGLGETTTEMESSSATKRKQPGVRKTPTAAEIEDLFSELESPDDKKKQFIEKYNFDIVNDEPLEGRYKWDRL | binds | binds
